{"source": "paper PMC12484798", "key": {"[1]": {"biological_target": "T1, TAF4A (mouse (endogenous in C2C12 and primary mouse MuSCs)) (UniProt E9QAP7)", "T1 sequence": "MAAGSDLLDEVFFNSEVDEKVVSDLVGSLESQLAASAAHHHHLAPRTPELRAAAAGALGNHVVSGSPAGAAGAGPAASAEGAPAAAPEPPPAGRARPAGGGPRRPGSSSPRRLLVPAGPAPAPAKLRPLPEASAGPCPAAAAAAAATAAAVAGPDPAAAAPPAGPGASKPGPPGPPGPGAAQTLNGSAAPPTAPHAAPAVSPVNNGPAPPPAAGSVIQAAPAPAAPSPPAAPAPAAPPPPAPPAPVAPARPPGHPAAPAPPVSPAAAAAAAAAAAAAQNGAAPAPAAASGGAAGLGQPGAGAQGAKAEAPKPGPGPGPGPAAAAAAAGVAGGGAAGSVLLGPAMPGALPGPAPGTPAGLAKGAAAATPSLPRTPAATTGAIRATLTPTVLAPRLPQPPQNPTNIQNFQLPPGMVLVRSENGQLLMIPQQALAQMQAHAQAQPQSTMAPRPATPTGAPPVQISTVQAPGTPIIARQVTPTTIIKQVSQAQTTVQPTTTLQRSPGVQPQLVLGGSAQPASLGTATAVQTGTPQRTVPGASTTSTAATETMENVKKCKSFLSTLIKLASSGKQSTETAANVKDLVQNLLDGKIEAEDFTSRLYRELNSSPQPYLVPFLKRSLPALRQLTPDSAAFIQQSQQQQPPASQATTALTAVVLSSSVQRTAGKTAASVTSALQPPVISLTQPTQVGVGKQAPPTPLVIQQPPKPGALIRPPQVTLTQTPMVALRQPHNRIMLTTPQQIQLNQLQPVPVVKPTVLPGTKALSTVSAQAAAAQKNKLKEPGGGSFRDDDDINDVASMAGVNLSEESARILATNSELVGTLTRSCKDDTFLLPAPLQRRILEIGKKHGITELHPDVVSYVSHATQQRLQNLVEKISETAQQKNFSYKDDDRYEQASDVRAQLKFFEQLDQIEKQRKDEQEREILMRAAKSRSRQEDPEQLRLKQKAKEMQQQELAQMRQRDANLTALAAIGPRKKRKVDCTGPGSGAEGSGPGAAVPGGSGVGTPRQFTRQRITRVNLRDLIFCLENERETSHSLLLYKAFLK", "assay": "co-IP; C2C12 cell lysate in RIPA buffer (50 mM Tris-HCl pH 7.4, 150 mM NaCl, 1% NP-40, 0.1% sodium deoxycholate), briefly sonicated; anti-TAF4A antibody overnight at 4 °C, Dynabeads Protein G; Western blot"}, "[2]": {"biological_target": "T1, TAF4A (mouse (endogenous in C2C12 and primary mouse MuSCs))", "assay": "co-IP; primary wild-type MuSC lysate in RIPA buffer (50 mM Tris-HCl pH 7.4, 150 mM NaCl, 1% NP-40, 0.1% sodium deoxycholate), briefly sonicated; anti-TAF4A antibody overnight at 4 °C, Dynabeads Protein G; Western blot for NF-YA or NF-YB"}}, "note": "No constants are given. Whether binding was seen depends on the method and setting. In cells and extracts the contact can be indirect. Some binding calls cover weakened binding; strength is not graded here.", "data": [{"binder": "NF-YB (protein, UniProt P63139 1-207) MTMDGDSSTTDASQLGISADYIGGSHYVIQPHDDTEDSMNDHEDTNGSKESFREQDIYLPIANVARIMKNAIPQTGKIAKDAKECVQECVSEFISFITSEASERCHQEKRKTINGEDILFAMSTLGFDSYVEPLKLYLQKFREAMKGEKGIGGAVSATDGLSEELTEEAFTNQLPAGLITADGQQQNVMVYTTSYQQISGVQQIQFS", "values": [{"measurement": "binding", "setting": "[1]", "result": "binds"}, {"measurement": "binding", "setting": "[2]", "result": "binds"}]}]}
